This note sets out measurements from PMC7414107.

Chains of the proteins cited; added tags and fusions are not shown.
UniProt Q80VP1: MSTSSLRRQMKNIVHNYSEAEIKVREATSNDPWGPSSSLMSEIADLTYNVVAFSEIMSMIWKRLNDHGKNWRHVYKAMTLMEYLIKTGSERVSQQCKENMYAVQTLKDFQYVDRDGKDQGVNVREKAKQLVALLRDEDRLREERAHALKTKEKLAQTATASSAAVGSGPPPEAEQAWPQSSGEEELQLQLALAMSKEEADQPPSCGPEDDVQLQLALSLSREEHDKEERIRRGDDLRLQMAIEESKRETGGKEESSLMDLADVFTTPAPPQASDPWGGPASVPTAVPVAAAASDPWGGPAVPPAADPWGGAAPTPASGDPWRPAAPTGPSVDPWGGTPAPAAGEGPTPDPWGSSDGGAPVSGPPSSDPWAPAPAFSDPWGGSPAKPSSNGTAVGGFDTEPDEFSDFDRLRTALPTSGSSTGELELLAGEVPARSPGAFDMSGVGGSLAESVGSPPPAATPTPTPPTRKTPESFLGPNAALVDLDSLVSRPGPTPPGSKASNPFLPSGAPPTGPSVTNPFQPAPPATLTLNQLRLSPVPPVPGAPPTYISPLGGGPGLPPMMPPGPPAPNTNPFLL

The assay addresses epsin 1 (mouse (endogenous in MAECs)) (UniProt Q80VP1). The experiment in a line: affinity purification with mass spectrometry; immunoprecipitation with an epsin-1 antibody on rec-protein-G-Sepharose 4B beads from MAECs treated with 100 µg/mL oxLDL for 30 min; Coomassie-stained gel bands digested with trypsin and identified by LC-MS/MS.

Results are given in words; binding and its absence hold for the method and conditions named. Binding seen in cells or lysates may run through a third protein. These calls come from enrichment with a bait or labelling near it, and not all partners need be listed.

B1: epsin 2 (protein, UniProt Q8CHU3 1-595)
chain: MTTSSIRRQMKNIVNNYSEAEIKVREATSNDPWGPSSSLMTEIADLTYNVVAFSEIMSMVWKRLNDHGKNWRHVYKALTLLDYLIKTGSERVAQQCRENIFAIQTLKDFQYIDRDGKDQGINVREKSKQLVALLKDEERLKVERVQALKTKERMAQVATGVGSNQITFGRGSSQPNLSTSYSEQEYGKAGGSPASYHGSTSPRVSSELEQARPQTSGEEELQLQLALAMSREVAEQSSESVQTARGSKEERLRRGDDLRLQMALEESRRDTVKVPKKKEAKACCKPGSHSQQTTLLDLMDALPSSGPVTQKTEPWSAGASANQTNPWGGTVAPSNITDPWPSFGTKPAASVDPWGVPTTASTQSVPKNSDPWAASQQPASNAGKTTDAWGAAKPSSASGSFELFSNFNGTVKDDFSEFDNLRTSKKPAESGASVPPQDSRTTSPDLFESQSLTSASSKPSSARKTPESFLGPNAALVNLDSLVTKPAPPAQSLNPFLAPGAAAPAPVNPFQVNQPQPLTLNQLRGSPVLGSSASFGSGPGVETVAPMTSVAPHSSVGASGSSLTPLGPTAMNMVGSVGIPPSAAQSTGTTNPFLL
B1: the binding result is on record as “binds”.
